The target of the data set is T1, GST-HY5 (Arabidopsis thaliana) (UniProt O24646).
T1 sequence (looked up): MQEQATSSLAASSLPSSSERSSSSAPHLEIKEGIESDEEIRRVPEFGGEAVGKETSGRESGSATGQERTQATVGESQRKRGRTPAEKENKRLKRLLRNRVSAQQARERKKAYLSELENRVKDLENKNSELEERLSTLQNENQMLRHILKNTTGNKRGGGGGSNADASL
The data set can be described thus: EMSA. The settings on record: plus increasing His-RSM1: binding enhanced; EMSA: 2 ug protein in 20 uL, 10 mM Tris-HCl pH 7.5, 50 mM KCl, 1 mM DTT, 50 ng/uL poly(dI-dC), 25 C, 20 min; 4-6% native PAGE, 0.5x TBE; recombinant protein; residues 1-168; protein details: GST (pGEX-4T-1 in Methods, pGEX-6P-1 in S7 Table); label: biotin 5' on both strands.

For at least one entry, the source does not settle the construct or the ends of the probe. Tags and fusion partners may be left off the protein sequences shown.

The text below walks through data of PMC6317822, “RSM1, an Arabidopsis MYB protein, interacts with HY5/HYH to modulate seed germination and seedling development in response to abscisic acid and salinity” (PLoS Genetics, 2018).

“CCTTATGCAGTGAATAGTCCACGTGCACTCCCAATGGAAGTTCGGAATC (double strand) [ABI5 promoter probe (HY5 site)]”: the binding result is “binds”.
